From patent US8618079B2, “Imidazo[1,2-a] pyridinyl bisphosphonates” (Isis Innovation Limited, priority 2008, dated 2013)

Test: Hydroxyapatite (HAP) affinity, chromatographic retention on HAP column
Format: physicochemical
Settings: phosphate buffer gradient 1 mM to 1000 mM, pH 6.8, longer retention = higher mineral affinity
Description: Mineral affinity for hydroxyapatite was evaluated by chromatographic profiling of the novel bisphosphonate compounds. Hydroxyapatite (HAP) ceramic spheres (20 mm diameter, BioRad) were packed in a 0.66×6.5 cm glass column (Omnifit®). The HAP columns were attached to a Waters 650E Advanced Protein Purification System (FPLC) (Millipore) in a running buffer of 1 mM KPO3 at pH 6.8. Each compound was prepared in 1 mM KPO3 buffer at pH6.8 and 400 μmoles were injected into the FPLC system. The bisphosphonate compounds were eluted in a gradient of phosphate buffer, concentration increasing from 1 mM up to 1000 mM and detected by a Waters 484 UV absorbance detector (Millipore) at their optimum wavelength. […] Longer retention times (minutes) correspond with higher affinity to the HAP sphere and, correspondingly, higher mineral affinity.

With `NCCCC(O)(P(=O)(O)O)P(=O)(O)O` [Alendronate, reference compound] the “HAP Affinity Retention time” value was 17.5 min.
